{"sequences": {"note": "By UniProt entry, the sequences of proteins in these tests, tags left out.", "UniProt P26039": "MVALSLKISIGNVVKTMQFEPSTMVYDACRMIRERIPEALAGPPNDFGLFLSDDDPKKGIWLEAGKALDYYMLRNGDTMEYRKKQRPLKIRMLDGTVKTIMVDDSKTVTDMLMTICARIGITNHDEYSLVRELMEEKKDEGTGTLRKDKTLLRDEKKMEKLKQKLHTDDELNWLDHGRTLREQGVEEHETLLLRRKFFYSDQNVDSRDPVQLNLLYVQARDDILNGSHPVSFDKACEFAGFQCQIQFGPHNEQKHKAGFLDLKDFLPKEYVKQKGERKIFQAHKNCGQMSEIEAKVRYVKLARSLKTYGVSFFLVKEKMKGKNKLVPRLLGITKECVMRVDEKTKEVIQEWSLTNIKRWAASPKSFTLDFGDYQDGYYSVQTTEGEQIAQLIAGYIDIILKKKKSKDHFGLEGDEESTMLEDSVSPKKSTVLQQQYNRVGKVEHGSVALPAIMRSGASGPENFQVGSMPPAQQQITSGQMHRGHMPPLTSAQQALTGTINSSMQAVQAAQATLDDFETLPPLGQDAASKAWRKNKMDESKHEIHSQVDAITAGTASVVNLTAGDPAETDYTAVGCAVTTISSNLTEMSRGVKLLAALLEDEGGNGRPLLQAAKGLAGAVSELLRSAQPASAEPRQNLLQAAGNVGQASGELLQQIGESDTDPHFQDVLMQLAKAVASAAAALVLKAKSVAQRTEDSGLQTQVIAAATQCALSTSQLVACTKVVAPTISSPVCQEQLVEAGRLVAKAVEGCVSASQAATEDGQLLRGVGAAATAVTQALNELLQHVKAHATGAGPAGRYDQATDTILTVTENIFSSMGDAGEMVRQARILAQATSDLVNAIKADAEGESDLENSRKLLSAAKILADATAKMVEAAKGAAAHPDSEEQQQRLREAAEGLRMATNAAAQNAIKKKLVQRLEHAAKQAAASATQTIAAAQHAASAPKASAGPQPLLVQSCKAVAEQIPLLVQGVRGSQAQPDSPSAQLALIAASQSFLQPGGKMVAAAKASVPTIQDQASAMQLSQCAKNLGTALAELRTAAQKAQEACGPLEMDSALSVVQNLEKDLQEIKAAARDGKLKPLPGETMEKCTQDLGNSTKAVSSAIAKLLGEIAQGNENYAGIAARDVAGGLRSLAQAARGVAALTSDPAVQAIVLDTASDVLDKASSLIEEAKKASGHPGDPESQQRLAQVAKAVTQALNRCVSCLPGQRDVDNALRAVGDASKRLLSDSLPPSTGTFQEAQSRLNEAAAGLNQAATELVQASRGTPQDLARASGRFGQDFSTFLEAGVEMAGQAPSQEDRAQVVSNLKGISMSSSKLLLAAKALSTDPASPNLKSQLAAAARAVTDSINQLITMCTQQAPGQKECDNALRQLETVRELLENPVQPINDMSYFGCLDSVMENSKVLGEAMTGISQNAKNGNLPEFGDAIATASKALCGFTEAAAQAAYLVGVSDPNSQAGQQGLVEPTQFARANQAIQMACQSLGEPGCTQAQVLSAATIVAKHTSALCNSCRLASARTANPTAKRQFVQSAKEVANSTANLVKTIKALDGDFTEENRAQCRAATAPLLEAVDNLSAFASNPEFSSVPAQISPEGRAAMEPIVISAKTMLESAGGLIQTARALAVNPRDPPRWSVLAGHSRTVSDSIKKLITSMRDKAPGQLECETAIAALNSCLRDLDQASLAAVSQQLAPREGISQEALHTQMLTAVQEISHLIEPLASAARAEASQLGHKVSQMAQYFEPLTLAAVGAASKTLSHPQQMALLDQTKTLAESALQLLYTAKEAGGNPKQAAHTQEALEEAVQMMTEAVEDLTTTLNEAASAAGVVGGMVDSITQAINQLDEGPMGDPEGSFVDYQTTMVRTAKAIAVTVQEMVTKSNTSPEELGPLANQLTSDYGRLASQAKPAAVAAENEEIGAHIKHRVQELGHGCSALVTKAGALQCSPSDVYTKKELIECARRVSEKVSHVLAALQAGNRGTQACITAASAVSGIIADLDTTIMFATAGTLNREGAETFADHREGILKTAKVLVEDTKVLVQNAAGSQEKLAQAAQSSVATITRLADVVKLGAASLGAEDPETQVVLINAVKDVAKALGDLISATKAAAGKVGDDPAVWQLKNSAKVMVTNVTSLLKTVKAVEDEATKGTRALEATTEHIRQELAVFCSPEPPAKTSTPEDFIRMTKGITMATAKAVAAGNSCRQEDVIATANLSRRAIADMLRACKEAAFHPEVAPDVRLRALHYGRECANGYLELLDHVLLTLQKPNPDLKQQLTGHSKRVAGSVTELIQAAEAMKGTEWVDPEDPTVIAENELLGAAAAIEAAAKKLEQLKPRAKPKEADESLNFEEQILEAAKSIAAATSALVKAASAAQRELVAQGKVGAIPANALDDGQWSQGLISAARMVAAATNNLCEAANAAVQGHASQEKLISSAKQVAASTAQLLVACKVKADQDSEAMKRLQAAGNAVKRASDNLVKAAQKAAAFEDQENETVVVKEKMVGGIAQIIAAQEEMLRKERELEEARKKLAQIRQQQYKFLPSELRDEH", "UniProt Q9QZS3": "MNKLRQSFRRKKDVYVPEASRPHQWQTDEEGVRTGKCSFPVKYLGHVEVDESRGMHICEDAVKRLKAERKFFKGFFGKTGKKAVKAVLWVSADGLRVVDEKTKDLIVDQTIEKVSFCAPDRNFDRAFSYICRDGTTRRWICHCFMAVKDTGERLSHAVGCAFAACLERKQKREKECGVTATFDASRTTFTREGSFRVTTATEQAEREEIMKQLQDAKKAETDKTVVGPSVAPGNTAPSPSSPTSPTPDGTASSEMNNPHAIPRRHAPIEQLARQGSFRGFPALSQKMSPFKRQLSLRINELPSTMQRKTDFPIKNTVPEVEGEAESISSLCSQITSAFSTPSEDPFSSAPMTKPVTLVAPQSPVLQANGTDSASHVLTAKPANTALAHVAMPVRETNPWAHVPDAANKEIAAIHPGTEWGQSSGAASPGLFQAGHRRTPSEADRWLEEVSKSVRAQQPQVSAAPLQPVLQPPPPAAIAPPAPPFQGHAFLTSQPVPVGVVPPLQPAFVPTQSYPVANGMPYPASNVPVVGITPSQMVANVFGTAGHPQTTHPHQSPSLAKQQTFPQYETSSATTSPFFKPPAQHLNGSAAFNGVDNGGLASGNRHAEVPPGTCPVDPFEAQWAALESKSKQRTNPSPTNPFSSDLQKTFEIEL", "UniProt Q7KZI7": "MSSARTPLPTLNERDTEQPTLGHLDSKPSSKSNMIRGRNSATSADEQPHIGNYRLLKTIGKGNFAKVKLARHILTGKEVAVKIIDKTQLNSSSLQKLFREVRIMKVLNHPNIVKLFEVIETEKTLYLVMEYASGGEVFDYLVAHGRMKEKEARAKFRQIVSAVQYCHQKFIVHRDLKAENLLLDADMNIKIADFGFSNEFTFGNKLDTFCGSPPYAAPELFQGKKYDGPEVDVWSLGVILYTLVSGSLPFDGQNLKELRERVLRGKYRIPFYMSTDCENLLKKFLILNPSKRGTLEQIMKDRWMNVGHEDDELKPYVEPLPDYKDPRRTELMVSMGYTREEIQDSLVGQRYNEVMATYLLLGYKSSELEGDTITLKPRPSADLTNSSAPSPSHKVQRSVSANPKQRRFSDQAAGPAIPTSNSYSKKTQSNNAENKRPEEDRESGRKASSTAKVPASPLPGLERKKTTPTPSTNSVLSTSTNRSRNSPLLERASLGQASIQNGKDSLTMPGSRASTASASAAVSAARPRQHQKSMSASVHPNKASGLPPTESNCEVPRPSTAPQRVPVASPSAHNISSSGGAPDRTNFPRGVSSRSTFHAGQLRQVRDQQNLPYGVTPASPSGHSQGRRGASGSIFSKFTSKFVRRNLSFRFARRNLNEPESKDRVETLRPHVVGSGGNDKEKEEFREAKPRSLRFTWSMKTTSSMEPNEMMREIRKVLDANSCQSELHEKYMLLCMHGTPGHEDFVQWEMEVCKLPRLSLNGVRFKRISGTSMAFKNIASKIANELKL"}, "source": "paper PMC9234671", "about": "“Molecular determinants of αVβ5 localization in flat clathrin lattices – role of αVβ5 in cell adhesion and proliferation” (Journal of Cell Science, 2022)", "key": {"[1]": {"molecular_target": "mouse β1 wild-type cytoplasmic tail peptide (mouse)", "assay": "pull-down; desthiobiotin tail peptides coupled to Dynabeads MyOne streptavidin C1, incubated with RAC-11P cell lysates (M-PER) at 4°C for 4 h, western blot; only the target purified"}, "[2]": {"molecular_target": "T1, mouse β3 wild-type tail peptide (mouse)", "T1 sequence (peptide, desthiobiotin on the N-terminus; C-terminal -OH)": "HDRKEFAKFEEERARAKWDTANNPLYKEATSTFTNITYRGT", "assay": "pull-down; desthiobiotin tail peptides coupled to Dynabeads MyOne streptavidin C1, incubated with RAC-11P cell lysates (M-PER) at 4°C for 4 h, western blot; only the target purified"}, "[3]": {"molecular_target": "T2, mouse β5 wild-type tail peptide (mouse)", "T2 sequence (peptide, desthiobiotin on the N-terminus; C-terminal -OH)": "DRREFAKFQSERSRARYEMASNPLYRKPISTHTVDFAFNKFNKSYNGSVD", "assay": "pull-down; desthiobiotin tail peptides coupled to Dynabeads MyOne streptavidin C1, incubated with RAC-11P cell lysates (M-PER) at 4°C for 4 h, western blot; only the target purified"}, "[4]": {"molecular_target": "integrin β5 (endogenous, keratinocytes) (human (endogenous in PA-JEB/β4 and HaCaT keratinocytes)) (UniProt P18084)", "assay": "co-IP; immunoprecipitation of endogenous β5 (normal rabbit serum and β6 as controls), western blot"}, "integrin β5-S759/762A": {"molecular_target": "integrin β5-S759/762A (UniProt P18084)", "assay": "co-IP; immunoprecipitation of wild-type or mutant β5 (SE, SA) expressed in β5-deficient keratinocytes, western blot"}, "integrin β5-S759/762E": {"molecular_target": "integrin β5-S759/762E (UniProt P18084)", "assay": "co-IP; immunoprecipitation of wild-type or mutant β5 (SE, SA) expressed in β5-deficient keratinocytes, western blot"}, "[5]": {"molecular_target": "wild-type integrin β5 expressed in β5-deficient PA-JEB/β4 keratinocytes (UniProt P18084)", "assay": "co-IP; immunoprecipitation of wild-type or mutant β5 (SE, SA) expressed in β5-deficient keratinocytes, western blot"}, "[6]": {"molecular_target": "T1, mouse β3 wild-type tail peptide (mouse)", "assay": "pull-down; desthiobiotin tail peptides coupled to Dynabeads MyOne streptavidin C1, incubated with RAC-11P cell lysates (M-PER) at 4°C for 4 h, western blot; only the target purified", "remark": "listed apart in the source"}, "[7]": {"molecular_target": "T2, mouse β5 wild-type tail peptide (mouse)", "assay": "pull-down; desthiobiotin tail peptides coupled to Dynabeads MyOne streptavidin C1, incubated with RAC-11P cell lysates (M-PER) at 4°C for 4 h, western blot; only the target purified", "remark": "listed apart in the source"}, "[8]": {"molecular_target": "mouse β1 wild-type cytoplasmic tail peptide (mouse)", "assay": "pull-down; desthiobiotin tail peptides coupled to Dynabeads MyOne streptavidin C1, incubated with RAC-11P cell lysates (M-PER) at 4°C for 4 h, western blot; only the target purified", "remark": "listed apart in the source"}}, "note": "Read-outs that look alike come from different tables or passages of the source. No constants are given. Whether binding was seen depends on the method and setting. In cells and extracts the contact can be indirect. Some results given as binding are weak or reduced against the parent protein; the word gives no strength.", "data": [{"molecule": "talin (RAC-11P cell lysate) (from UniProt P26039 1-2541)", "values": [{"measurement": "binding", "setting": "[1]", "value": "binds"}]}, {"molecule": "Numb (RAC-11P cell lysate) (from UniProt Q9QZS3 1-653)", "values": [{"measurement": "binding", "setting": "[1]", "value": "no binding"}, {"measurement": "binding", "setting": "[2]", "value": "no binding"}, {"measurement": "binding", "setting": "[3]", "value": "binds"}]}, {"molecule": "microtubule affinity-regulating kinase 2 (MARK2) (from UniProt Q7KZI7 1-788) (enzyme)", "values": [{"measurement": "binding", "setting": "[4]", "value": "binds"}, {"measurement": "binding", "setting": "integrin β5-S759/762A", "value": "binds"}, {"measurement": "binding", "setting": "integrin β5-S759/762E", "value": "binds"}, {"measurement": "binding", "setting": "[5]", "value": "binds"}]}, {"molecule": "SNX17 (RAC-11P cell lysate) (protein, UniProt Q8BVL3 1-470) MHFSIPETESRSGDSGGSAYVAYNIHVNGVLHCRVRYSQLLGLHEQLRKEYGANVVPAFPPKKLFSLTPAEVEQRREQLEKYMQAVRQDPLLGSSETFNSFLRRAQQETQQVPTEEVSLEVLLSNGQKVLVTVLTSDQTEDVLEAVAAKLDLPDDLIGYFSLFLVREKEDGAFSFVRKLQEFELPYVSVTSLRSQEYKIVLRKSYWDSAYDDDVMENRVGLNLLYAQTVSDIEHGWILVTKEQHRQLKSLQEKVSKKEFLRLAQTLRHYGYLRFDACVADFPEKDCPVVVSAGNSELSLQLRLPGQQLREGSFRVTRMRCWRVTSSVPLPSGGTSSPSRGRGEVRLELAFEYLMSKDRLQWVTITSPQAIMMSICLQSMVDELMVKKSGGSIRKMLRRRVGGTLRRSDSQQAVKSPPLLESPDASRESMVKLSSKLSAVSLRGIGSPSTDASASAVHGNFAFEGIGDEDL", "values": [{"measurement": "binding", "setting": "[6]", "value": "binds"}, {"measurement": "binding", "setting": "[7]", "value": "binds"}]}, {"molecule": "ARH (RAC-11P cell lysate) (protein, UniProt Q8C142 1-308) MDALKSAGRALIRSPSLAKQSWAGGRHRKLPENWTDTRETLLEGMVFSLKYLGMTLVERPKGEELSAAAVKRIVATAKASGKKLQKVTLKVSPRGIILTDSLTSQLIENVSIYRISYCTADKMHDKVFAYIAQSQQNESLECHAFLCTKRKVAQAVTLTVAQAFKVAFEFWQVSKEEKEKREKANQEGGDVPGTRRDSTPSLKTLVATGNLLDLEEVAKAPLSTVSANTNNVDETPRPQVLGNNSVVWELDDGLDEAFSRLAQSRTNPQVLDTGLSAQDIHYAQCLSPTDWDKPDSSGIDQDDDVFTF", "values": [{"measurement": "binding", "setting": "[8]", "value": "no binding"}, {"measurement": "binding", "setting": "[6]", "value": "no binding"}, {"measurement": "binding", "setting": "[7]", "value": "binds"}]}, {"molecule": "KANK-2 (RAC-11P cell lysate) (protein, UniProt Q8BX02 1-843) MAQVLHVPAPFPGTPGQASPAAFPSKEPDPPYSVETPYGYRLDLDFLKYVDDIEKGHTLRRVAVQRRPRLGSLPRGPGSWWTSTESLCSDASGDSRHSAYSYCGRGFYPQYGALETRIGSNPRVERTLLDARRRLEDQAAAPSSGGLGSLTPSAAGSTSSLAGVGLLPPTPRSSGLSTPVAPSAGHLAHVREQMAGALRKLRQLEEQVKLIPVLQVKLSVLQEEKRQLTVQLKSQKFLGHPSGTRSRSELCLDLPEAPDDPAALETRSVGTWVRERDLGIPDGEAALVAKVAVLETQLKKALQELRAAQTQQVDLQPQAWPPPDTQVRVDTVRVVEGPREVEVAASTAAGALAQRAQSLEPYGTGLKALTTSGGPENTLVFRSHEVVETMCPLPTATTGNVHTAKKISITERSCTGAPRMTEPSSVNPRPAAASVVQPENPVPAAQDTTDKKPTRPAAASQDSQAADGAGRASLATKRKEDPADPEVNQRNLQFVGVNGGYESPSEDSSTAENSEHESTENEGPEPPARVLSPAECPQLRPPGAAVATTSLEGPQLSQESQRVPAPEVASGPDPEEEIRMDLSPDLISACLALEKYLENPNALTERELKVAYTTVLQEWLRLACRSDAHPELVRRHLVTFRAMSARLLDYVVNIADSNGNTALHYSVSHANFPVVRQLLDSGVCHVDKLNRAGYSPIMLTALATLKTQDDIETILQLFRLGNVNAKASQAGQTALMLAVSHGRVDVVRALLACEADVNIQDEDGSTALMCACEHGHKEITGLLLAVPSCDISLTDRDGSTALMVALDAGQSEIASMLYSRMNIKCSFAPMSDYESPASSSAEE", "values": [{"measurement": "binding", "setting": "[8]", "value": "binds"}]}, {"molecule": "kindlin-1 (RAC-11P cell lysate) (protein, UniProt P59113 1-677) MLSSGDLTSASWELVVRVDHANGEQQTEITLRVSGDLHIGGVMLKLVEQMNIAQDWSDYALWWEQKRCWLLKTHWTLDKCGVQADANLLFTPQHKMLRLRLPNAKTVRLRVSFSAVVFKAVADICKVLNIRRPEELSLLKPSSDYCKKKKKKEKNSKEPVIEDILNLESSSTSSGSPVSPGLYSKTMTPTYDPINGTPALSTMTWFGDSPLTEQNCSVLAFSQPPPSPDVLADMFQPRSLVDKAKMNAGWLDSSRSLMEQSIQEDEQLQLRFKYYTFFDLNPKYDAVRINQLYEQARWAVLLEEIDCTEEEMLIFAALQYHISKLSQCAEIQDFATKSEVDEVEAALSSLEVTLEGGKADNTLEDITDIPKLADYLKLFRPKKLMLKACKQYWFVFKDTSIAYFKNKELEQGEPIEKLNLRGCEIVPDVNVSGRKFGIKLLIPVADGMNEVYLRCDHEDQYARWMAACILASKGKTMADSSYQPEVISILSFLKMKNRNSSPLVASSLENMDMNPECLVSPCCAKKHKSKQLAARILEAHHNVAQMPLVEAKLQFIQAWQSLPEFGLTYYLVRFKGSKKDDILGVAYNRLIRIDAVTGIPVTTWRFANMKQWNVNWEIRQVAIEFDQNVSIAFTCLSADCKIVHEYIGGYIFLSTRSKDQNETLDEDLFHKLTGGQD", "values": [{"measurement": "binding", "setting": "[8]", "value": "binds"}, {"measurement": "binding", "setting": "[7]", "value": "no binding"}]}, {"molecule": "kindlin-2 (RAC-11P cell lysate) (protein, UniProt Q8CIB5 1-680) MALDGIRMPDGCYADGTWELSVHVTDLNRDVTLRVTGEVHIGGVMLKLVEKLDVKKDWSDHALWWEKKRTWLLKTHWTLDKCGIQADAKLQFTPQHKLLRLQLPNMKYVKVKVNFSDRVFKAVSDICKTFNIRHPEELSLLKKPRDPTKKKKKKLDDQSEDEALELEGPLIMPGSGSIYSSPGLYSKTMTPTYDAHDGSPLSPTSAWFGDSALSEGNPGILAVSQPVTSPEILAKMFKPQALLDKAKTNQGWLDSSRSLMEQDVKENEALLLRFKYYSFFDLNPKYDAIRINQLYEQAKWALLLEEIECTEEEMMMFAALQYHINKLSIMTSENHLNNSDKEVDEVDAALSDLEITLEGGKTSTILGDITSIPELADYIKVFKPKKLTLKGYKQYWCTFKDTSISCYKSREESSGTPAHQLNLRGCEVTPDVNISGQKFNIKLLIPVAEGMNEIWLRCDNEKQYAHWMAACRLASKGKTMADSSYNLEVQNILSFLKMQHLNPDPQLIPDQITTDVNPECLVSPRYLKKYKSKQITARILEAHQNVAQMSLIEAKMRFIQAWQSLPEFGITHFIARFQGGKREELIGIAYNRLIRMDASTGDAIKTWRFSNMKQWNVNWEIKMVTVEFADEVRLSFICTEVDCKVVHEFIGGYIFLSTRAKDQNESLDEEMFYKLTSGWV", "values": [{"measurement": "binding", "setting": "[8]", "value": "binds"}, {"measurement": "binding", "setting": "[7]", "value": "no binding"}]}]}
